In publication doi:10.1101/2021.05.22.445289:
These are yes or no findings as the source states them, for the method shown. In cells and extracts the contact can be indirect. Some binding calls cover weakened binding; strength is not graded here. Where a sequence is shown, tags or fusion partners need not be part of it.

Chains of the proteins cited; added tags and fusions are not shown.
UniProt P15409: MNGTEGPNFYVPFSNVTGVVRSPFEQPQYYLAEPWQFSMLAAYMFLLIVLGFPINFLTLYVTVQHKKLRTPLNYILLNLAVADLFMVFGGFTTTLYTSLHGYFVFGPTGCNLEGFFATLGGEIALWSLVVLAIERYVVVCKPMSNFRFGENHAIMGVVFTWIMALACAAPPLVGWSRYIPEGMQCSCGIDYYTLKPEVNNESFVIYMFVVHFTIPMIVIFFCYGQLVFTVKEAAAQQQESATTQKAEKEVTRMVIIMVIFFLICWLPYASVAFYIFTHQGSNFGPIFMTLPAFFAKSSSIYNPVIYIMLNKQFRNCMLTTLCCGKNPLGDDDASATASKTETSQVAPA

How the values were obtained:
Test in all cases: pull-down
HA-tagged rhodopsin = HA-tagged rhodopsin (UniProt P15409)
[1] = molecular target: T1, 3xFlag-TST (Twin-Strep-tag)-tagged Tmem138 (mouse) (UniProt Q9D6G5)
T1 sequence: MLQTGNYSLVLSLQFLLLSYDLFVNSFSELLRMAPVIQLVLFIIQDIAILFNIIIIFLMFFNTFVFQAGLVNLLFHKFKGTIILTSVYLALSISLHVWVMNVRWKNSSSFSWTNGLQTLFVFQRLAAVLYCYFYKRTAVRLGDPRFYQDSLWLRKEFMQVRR

[2] = molecular target: T2, Ahi1 (HA- or Flag-tagged) (UniProt Q8K3E5)
T2 sequence: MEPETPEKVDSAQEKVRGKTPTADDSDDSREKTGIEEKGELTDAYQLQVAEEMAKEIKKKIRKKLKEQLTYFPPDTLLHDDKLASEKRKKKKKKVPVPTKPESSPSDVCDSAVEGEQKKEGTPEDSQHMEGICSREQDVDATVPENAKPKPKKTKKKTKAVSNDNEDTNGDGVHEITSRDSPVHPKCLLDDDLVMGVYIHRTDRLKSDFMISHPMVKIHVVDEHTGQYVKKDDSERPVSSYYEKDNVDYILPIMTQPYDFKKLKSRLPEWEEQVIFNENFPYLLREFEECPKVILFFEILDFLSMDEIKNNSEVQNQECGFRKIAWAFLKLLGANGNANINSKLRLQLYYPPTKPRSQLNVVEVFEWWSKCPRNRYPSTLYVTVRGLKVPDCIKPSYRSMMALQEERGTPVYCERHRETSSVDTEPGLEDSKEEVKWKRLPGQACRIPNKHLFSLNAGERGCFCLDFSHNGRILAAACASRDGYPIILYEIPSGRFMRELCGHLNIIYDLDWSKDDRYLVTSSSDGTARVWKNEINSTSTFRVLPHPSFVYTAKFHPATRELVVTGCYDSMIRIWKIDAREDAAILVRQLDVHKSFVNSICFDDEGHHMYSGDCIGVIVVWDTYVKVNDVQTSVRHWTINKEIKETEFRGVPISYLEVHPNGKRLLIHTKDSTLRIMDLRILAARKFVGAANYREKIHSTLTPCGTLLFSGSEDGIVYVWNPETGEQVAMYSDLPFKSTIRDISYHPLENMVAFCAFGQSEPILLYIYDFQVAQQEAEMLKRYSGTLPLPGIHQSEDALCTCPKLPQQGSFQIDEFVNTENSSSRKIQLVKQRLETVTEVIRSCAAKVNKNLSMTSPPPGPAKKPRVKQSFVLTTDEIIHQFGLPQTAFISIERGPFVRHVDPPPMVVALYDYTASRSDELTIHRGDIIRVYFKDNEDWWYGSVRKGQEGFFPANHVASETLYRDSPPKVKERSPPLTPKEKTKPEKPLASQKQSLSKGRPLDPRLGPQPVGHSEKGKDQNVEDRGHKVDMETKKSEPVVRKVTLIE

| Binder | binding (HA-tagged rhodopsin) | binding [1] | binding [2] |
| --- | --- | --- | --- |
| 3xFlag-TST (Twin-Strep-tag)-tagged Tmem138 (protein, UniProt Q9D6G5 1-162) MLQTGNYSLVLSLQFLLLSYDLFVNSFSELLRMAPVIQLVLFIIQDIAILFNIIIIFLMFFNTFVFQAGLVNLLFHKFKGTIILTSVYLALSISLHVWVMNVRWKNSSSFSWTNGLQTLFVFQRLAAVLYCYFYKRTAVRLGDPRFYQDSLWLRKEFMQVRR | binds |  |  |
| Ahi1 (HA- or Flag-tagged) (protein, UniProt Q8K3E5 1-1047) MEPETPEKVDSAQEKVRGKTPTADDSDDSREKTGIEEKGELTDAYQLQVAEEMAKEIKKKIRKKLKEQLTYFPPDTLLHDDKLASEKRKKKKKKVPVPTKPESSPSDVCDSAVEGEQKKEGTPEDSQHMEGICSREQDVDATVPENAKPKPKKTKKKTKAVSNDNEDTNGDGVHEITSRDSPVHPKCLLDDDLVMGVYIHRTDRLKSDFMISHPMVKIHVVDEHTGQYVKKDDSERPVSSYYEKDNVDYILPIMTQPYDFKKLKSRLPEWEEQVIFNENFPYLLREFEECPKVILFFEILDFLSMDEIKNNSEVQNQECGFRKIAWAFLKLLGANGNANINSKLRLQLYYPPTKPRSQLNVVEVFEWWSKCPRNRYPSTLYVTVRGLKVPDCIKPSYRSMMALQEERGTPVYCERHRETSSVDTEPGLEDSKEEVKWKRLPGQACRIPNKHLFSLNAGERGCFCLDFSHNGRILAAACASRDGYPIILYEIPSGRFMRELCGHLNIIYDLDWSKDDRYLVTSSSDGTARVWKNEINSTSTFRVLPHPSFVYTAKFHPATRELVVTGCYDSMIRIWKIDAREDAAILVRQLDVHKSFVNSICFDDEGHHMYSGDCIGVIVVWDTYVKVNDVQTSVRHWTINKEIKETEFRGVPISYLEVHPNGKRLLIHTKDSTLRIMDLRILAARKFVGAANYREKIHSTLTPCGTLLFSGSEDGIVYVWNPETGEQVAMYSDLPFKSTIRDISYHPLENMVAFCAFGQSEPILLYIYDFQVAQQEAEMLKRYSGTLPLPGIHQSEDALCTCPKLPQQGSFQIDEFVNTENSSSRKIQLVKQRLETVTEVIRSCAAKVNKNLSMTSPPPGPAKKPRVKQSFVLTTDEIIHQFGLPQTAFISIERGPFVRHVDPPPMVVALYDYTASRSDELTIHRGDIIRVYFKDNEDWWYGSVRKGQEGFFPANHVASETLYRDSPPKVKERSPPLTPKEKTKPEKPLASQKQSLSKGRPLDPRLGPQPVGHSEKGKDQNVEDRGHKVDMETKKSEPVVRKVTLIE | no binding | binds |  |
| Tmem231 (HA- or Flag-tagged) (protein, UniProt Q3U284 1-315) MALYHLFSHPIERAYRAGLCSKAALFLLLTTALTYIPPLLVAFRSHGFWLKRSSYEEQPNVRFQHQVLLVALLGPEPEAFLAWSTFPTFNRLQGAHLRVPLVSSREEDRNQDGKMDVLYFKLELPLQPTEHVLGVQLILTFSYQLHRMSTFEMQSMAFLQSSFAVPGSQLYVNGDLRLQQKQPLSYRGLDIRYNVSVINGTSPFAQDYDLTHIVAAYQERNVTTVLSDPNPIWLVGRAAEAPFVIHAVIRYPTEVISYQPGFWEMIKFAWIQYVSILLIFLWVFERIKIFVFQNQVVTSIPVAVPQGEIRKEHLS | binds | binds | no binding |
| Tmem67-Flag (protein, UniProt Q8BR76 37-992) QIFSFPFRRPETCDFNQYFDISALSCAPCGANQRRDALGTSCVCLPGYHMISNNGGPSIICKKCPENMKGVTKDGWDCISCPSGLTAEGKCHCPTGHILVERNVSGSLLAQATCELCDESENSFTKANALGTRCVRCEPTFVNTSRSCSCSEPHTLTGGLCFSNTGNFHQRVISTARYGELGMSLNSEWFAKYLQATAAACWTHANLTSCQALGNMCVMNMNSYDSTTLDACRLFHYIFESTAGLISVHSVPFWRQNLPWLFYGDQPGLAPQVLSTTPLPTNFSFKGQNQLKFVAASYDIRGNFIKWQPLEGGVLQLCPDTERRLDAAYAFGTTYQQNCEISLSKLLVDFSSPVFYDVYLEYTDEEQHRYLWPIPVLNLNLQHNKLFVNQDSSSSKWLLTRRIFLVDAVSGRENDLGNQPRVIRVATQISLSIRLVPNTKNGNIYTPLLTIAYSDIDIKNAHSQSAKISFSVKYEMNQGDASVHTDIALGVLGGLAVLSSLLKTAGWKRRVGSPMIDLQTVMKFLLYYAGDLANVFFIITVGTGLYWLIFFKAQKSVSVLLPMPVQEERFVTYVGCAFAMKALQFLHKFISQISIDIFFIDWERPKGKVLKAVEGEGGVRSATVPVSIWRTYFVANEWNEIQTVRKINPLFQVLTTLFFLEVVGFKNLALMDSSSSLSRNPSDYTAPYSRILRYAVATAIWLVIGIIQVVFFAAFYERFIEDKIRQFVDLCSMSNVSVFLLSHRCFGYYIHGRSVHGHADTNMEEMNMNLKREAENLCSQRGLVPNTDGQTFQIAVSSQMRQHYDRIHETLTRRNGPARLLSSSGSTFEQSIKAYHAMNKFLGSFIDHVHKEMDYFIKDKLLLERILGMEFMEPMEKSIFYNDEGHSFSSVLYYGNEATLLIFDLLFFCVVDLACQDFVLASFLTYLQQEIFRFIRNTVGQKNLATKTLVDERFLI |  | no binding |  |
